Experimental data: US20220411487A1
These are yes or no findings as the source states them, for the method shown. Binding can be weak; no strength is given.

The chains behind the UniProt entries cited, without tags or fusion partners. Where a name states a change or a piece, a line headed by the entry shows the natural chain unless it says otherwise.
UniProt Q8IU80: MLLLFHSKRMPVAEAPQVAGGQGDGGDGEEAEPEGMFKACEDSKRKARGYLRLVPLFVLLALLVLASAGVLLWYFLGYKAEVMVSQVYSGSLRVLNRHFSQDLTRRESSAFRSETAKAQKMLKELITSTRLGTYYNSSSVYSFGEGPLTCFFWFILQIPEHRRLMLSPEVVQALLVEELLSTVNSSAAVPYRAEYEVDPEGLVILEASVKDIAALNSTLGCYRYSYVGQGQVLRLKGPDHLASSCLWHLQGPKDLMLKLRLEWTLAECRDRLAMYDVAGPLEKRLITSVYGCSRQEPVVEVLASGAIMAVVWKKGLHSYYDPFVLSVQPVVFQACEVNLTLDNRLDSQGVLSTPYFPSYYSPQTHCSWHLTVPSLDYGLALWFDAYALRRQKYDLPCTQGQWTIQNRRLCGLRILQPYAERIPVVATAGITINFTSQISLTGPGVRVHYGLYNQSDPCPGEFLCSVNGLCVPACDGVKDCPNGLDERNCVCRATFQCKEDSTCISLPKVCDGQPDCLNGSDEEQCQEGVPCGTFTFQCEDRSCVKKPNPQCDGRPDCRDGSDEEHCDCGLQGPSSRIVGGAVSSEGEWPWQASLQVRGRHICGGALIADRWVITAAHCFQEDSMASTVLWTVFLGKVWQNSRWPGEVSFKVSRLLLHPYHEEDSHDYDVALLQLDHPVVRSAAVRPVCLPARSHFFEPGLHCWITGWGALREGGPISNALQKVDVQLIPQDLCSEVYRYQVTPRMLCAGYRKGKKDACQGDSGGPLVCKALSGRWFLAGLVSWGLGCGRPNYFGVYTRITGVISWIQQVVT

B1: REGN7999 (antibody, human IgG4 S228P, kappa, V domains shown)
VH: EVQLVESGGGLVQPGGSLRLSCAASGFTFSSYAMTWVRQAPGKGLEWVSAISGSDTSTYYADSVKGRFTISRDNSKNTLFLQMNSLRAEDTAVYYCAKHQDYDFSYYYSAMDVWGQGTTVTVSS
VL: DIQMTQSPSSLSASVGDRVIITCRASQDFNSWLAWYQQKPGKAPKLLIYAASSLQSGVPSRFSGSGSGTDFTLTISSLQPEDFATYYCQQTDSFPFTFGPGTKVDIKR
B2: REGN8023 (antibody, human IgG4 S228P, kappa, V domains shown)
VH: EVQLVESGGGLVKPGGSLRISCAASGFIFVDYAMHWVRQAPGKGLEWVSGISWNSGSIGYADSVKGRFTISRDNAKKSLYLQMSGLRPEDTALYYCVKSGFYYVRSYFDNWGQGTLVTVSS
VL: DIVMTQSPLSLPVTPGEPASISCRSSQSLLDSDDGNTYLDWYLRKPGQSPQLLIYTLSYRASGVPDRFSGSGSGTDFTLKISRVEADDVGVYYCMQRIEFPLTFGGGTKVEIKR

Target: full length human TMPRSS6 on HEK293 cells (HEK293/hTMPRSS6) (human) (UniProt Q8IU80)
Test: flow cytometry

Row | Binder | binding
1 | B1 | binds
2 | B2 | binds
